These are yes or no findings as the source states them, for the method shown.
Target: CLIPPER_(K715A) (CLIPPER domain variant lacking the isopeptide-forming lysine, residues 708-828 of B9T28_05395) (Acinetobacter silvestris ANC 4999)
Assay: SEC; EnRich SEC 650 10 x 300 column, equilibrated with PBS (for CD and proteolysis) or TBS (20 mM Tris, 100 mM NaCl, pH 8.0, for crystallization); one primary peak per polypeptide; both purified

binding: no binding
Substance: CLIPPER_(K715A) (CLIPPER domain variant lacking the isopeptide-forming lysine, residues 708-828 of B9T28_05395) (from UniProt A0A1Y3CHT7 708-828) (domain or fragment)
